Test results reported in patent publication US7045531B1, “Composition comprising a metal chelator and a method of treating amyloidosis by administering the metal chelator” (The General Hospital Corporation, priority 1997, dated 2006).

Assay: SDS-resistant polymerization of Aβ peptides with Cu^2+ (Western blot, image analysis)
Assay type: biochemical
Procedure: Following incubation (37° C.), aliquots of each reaction (2 ng peptide) were collected at 0 d, 1 d, 3 d and 5 d and western blotted using anti-Aβ monoclonal antibody 8E10 (FIG. 9). Migration of the molecular size markers are indicated (kDa). […] It should be noted that other means of visualizing and/or determining the presence or absence of polymerization other than western blot analysis may be used. Such other means include but are not limited to density sedimentation by centrifugation of the samples.
As above, electronic images captured using the Fluoro-S Image Analysis System (Bio-Rad, Hercules, Calif.) were analyzed using Multi-Analyst Software (Bio-Rad, Hercules, Calif.).
(0–30 μM) at pH 7.4 and 6.6 and the samples analyzed by Western blot and the signal quantitated using the Fluoro-S Image Analysis System (Bio-Rad, Hercules, Calif.) as previously described.

## Aβ1-40: synthetic human Aβ1-40 peptide
pH 6.6, [Cu^2+] increased from 0.5 to 1 μM
  increase in dimerization: over 3 fold

## rat Aβ1-40: Rat/mouse Aβ1-40 with substitutions R5G, Y10F, H13R (DAEFGHDSGFEVRHQKLVFFAEDVGSNKGAIIGLMVGGVV; Amyloid-beta protein 40; UniProt P12023 672-711, looked up, fragment)
Cu^2+ and Fe^3+, pH 7.4 and 6.6
  formation of SDS-resistant Aβ polymers: Neither metal ion induced SDS-resistant Aβ polymers
